The target in this test is Arf1-V5 (human) (UniProt P84077). The test can be described thus: GST pulldown of Arf1-GTP from Vero cell lysates on glutathione agarose, anti-V5 Western blot.

The chains behind the UniProt entries cited, without tags or fusion partners. Residues count along the entry.
UniProt P84077, residues 2-181: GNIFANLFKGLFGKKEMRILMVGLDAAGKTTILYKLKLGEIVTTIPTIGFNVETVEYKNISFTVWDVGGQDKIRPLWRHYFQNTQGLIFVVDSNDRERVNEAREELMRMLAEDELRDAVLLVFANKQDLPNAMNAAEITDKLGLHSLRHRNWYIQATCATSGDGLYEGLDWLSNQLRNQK

These are yes or no findings as the source states them, for the method shown. In cells and extracts the contact can be indirect. Some binding calls cover weakened binding; strength is not graded here. Tags and fused reporters may be left off the sequences shown.

B1: recombinant GGA3-GST protein (VHS and GAT domains from human GGA3 in pGEX-6p1) (protein, UniProt Q9NZ52 1-316, looked up, not shown: a dimerising Fc or GST)
chain: MAEAEGESLESWLNKATNPSNRQEDWEYIIGFCDQINKELEGPQIAVRLLAHKIQSPQEWEALQALTVLEACMKNCGRRFHNEVGKFRFLNELIKVVSPKYLGDRVSEKVKTKVIELLYSWTMALPEEAKIKDAYHMLKRQGIVQSDPPIPVDRTLIPSPPPRPKNPVFDDEEKSKLLAKLLKSKNPDDLQEANKLIKSMVKEDEARIQKVTKRLHTLEEVNNNVRLLSEMLLHYSQEDSSDGDRELMKELFDQCENKRRTLFKLASETEDNDNSLGDILQASDNLSRVINSYKTIIEGQVINGEVATLTLPDSEG
For B1, the binding entry is recorded as “binds”.

The record behind these values is patent US20100159468A1.
